In paper PMC9958104, “Arabidopsis histone H3 lysine 9 methyltransferases KYP/SUVH5/6 are involved in leaf development by interacting with AS1-AS2 to repress KNAT1 and KNAT2” (Communications Biology, 2023):
These are yes or no findings as the source states them, for the method shown. In cells and extracts the contact can be indirect. Some entries that bind do so weakly or less than the wild type. Where a sequence is shown, tags or fusion partners need not be part of it.

Tests used:
[1] = target: T1, … LEAVES1 (AS1), BiFC fusion (Arabidopsis thaliana) (UniProt O80931); experiment: split reporter; BiFC (YN/YC halves of YFP) in Agrobacterium GV3101-infiltrated N. benthamiana leaves; confocal microscopy; nucleus marked by NLS-mCherry
T1 sequence: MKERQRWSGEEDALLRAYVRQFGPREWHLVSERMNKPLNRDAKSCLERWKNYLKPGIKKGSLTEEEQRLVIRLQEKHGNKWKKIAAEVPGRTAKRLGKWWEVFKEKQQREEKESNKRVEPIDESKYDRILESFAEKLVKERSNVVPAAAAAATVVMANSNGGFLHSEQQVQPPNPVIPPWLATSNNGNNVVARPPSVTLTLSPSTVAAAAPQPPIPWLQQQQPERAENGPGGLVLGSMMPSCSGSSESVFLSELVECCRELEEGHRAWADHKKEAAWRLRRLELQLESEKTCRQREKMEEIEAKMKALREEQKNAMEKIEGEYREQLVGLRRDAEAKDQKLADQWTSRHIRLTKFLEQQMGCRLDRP

[2] = target: T2, … LEAVES2 (AS2), BiFC fusion (Arabidopsis thaliana) (UniProt O04479); experiment: as above
T2 sequence: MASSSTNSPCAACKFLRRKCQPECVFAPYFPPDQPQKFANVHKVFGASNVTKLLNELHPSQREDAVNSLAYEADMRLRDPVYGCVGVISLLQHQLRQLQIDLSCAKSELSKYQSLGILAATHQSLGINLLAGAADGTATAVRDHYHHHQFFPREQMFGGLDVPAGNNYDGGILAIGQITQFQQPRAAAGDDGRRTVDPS

[3] = target: T1, … LEAVES1 (AS1), BiFC fusion (Arabidopsis thaliana); experiment: split reporter; BiFC (YN/YC halves of YFP) in transiently transformed Arabidopsis protoplasts; confocal microscopy
[4] = target: T2, … LEAVES2 (AS2), BiFC fusion (Arabidopsis thaliana); experiment: as above
[5] = target: T3, AS2-GFP (Arabidopsis thaliana) (UniProt O04479); experiment: co-IP; KYPpro::KYP:FLAG/kyp Arabidopsis protoplasts with AS2-GFP
T3 sequence: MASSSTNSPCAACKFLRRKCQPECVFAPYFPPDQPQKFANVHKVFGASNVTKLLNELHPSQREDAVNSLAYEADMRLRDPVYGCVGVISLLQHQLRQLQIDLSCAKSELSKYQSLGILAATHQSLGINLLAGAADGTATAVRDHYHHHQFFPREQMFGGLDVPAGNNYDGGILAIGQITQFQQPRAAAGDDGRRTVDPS

Measured: binding

B1: KRYPTONITE/SUPPRESSOR OF …ON 3-9 HOMOLOG 4 (KYP/SUVH4), full length, BiFC fusion (enzyme, UniProt Q8GZB6 1-624)
chain: MAGKRKRANAPDQTERRSSVRVQKVRQKALDEKARLVQERVKLLSDRKSEICVDDTELHEKEEENVDGSPKRRSPPKLTAMQKGKQKLSVSLNGKDVNLEPHLKVTKCLRLFNKQYLLCVQAKLSRPDLKGVTEMIKAKAILYPRKIIGDLPGIDVGHRFFSRAEMCAVGFHNHWLNGIDYMSMEYEKEYSNYKLPLAVSIVMSGQYEDDLDNADTVTYTGQGGHNLTGNKRQIKDQLLERGNLALKHCCEYNVPVRVTRGHNCKSSYTKRVYTYDGLYKVEKFWAQKGVSGFTVYKYRLKRLEGQPELTTDQVNFVAGRIPTSTSEIEGLVCEDISGGLEFKGIPATNRVDDSPVSPTSGFTYIKSLIIEPNVIIPKSSTGCNCRGSCTDSKKCACAKLNGGNFPYVDLNDGRLIESRDVVFECGPHCGCGPKCVNRTSQKRLRFNLEVFRSAKKGWAVRSWEYIPAGSPVCEYIGVVRRTADVDTISDNEYIFEIDCQQTMQGLGGRQRRLRDVAVPMNNGVSQSSEDENAPEFCIDAGSTGNFARFINHSCEPNLFVQCVLSSHQDIRLARVVLFAADNISPMQELTYDYGYALDSVHGPDGKVKQLACYCGALNCRKRLY
binds: [1] | [2] | [3] | [4]

B2: SUPPRESSOR OF …ON 3-9 HOMOLOG 5 (SUVH5), full length, BiFC fusion (enzyme, UniProt O82175 1-794)
chain: MVHSESSILSSLRGGDGGGIPCSKDELAINGSYTDPMGRRKSKRFKVAAESEFSPDFGSITRQLRSRRMQKEFTVETYETRNVSDVCVLSSQADVELIPGEIVAERDSFKSVDCNDMSVGLTEGAESLGVNMQEPMKDRNMPENTSEQNMVEVHPPSISLPEEDMMGSVCRKSITGTKELHGRTISVGRDLSPNMGSKFSKNGKTAKRSISVEEENLVLEKSDSGDHLGPSPEVLELEKSEVWIITDKGVVMPSPVKPSEKRNGDYGEGSMRKNSERVALDKKRLASKFRLSNGGLPSCSSSGDSARYKVKETMRLFHETCKKIMQEEEARPRKRDGGNFKVVCEASKILKSKGKNLYSGTQIIGTVPGVEVGDEFQYRMELNLLGIHRPSQSGIDYMKDDGGELVATSIVSSGGYNDVLDNSDVLIYTGQGGNVGKKKNNEPPKDQQLVTGNLALKNSINKKNPVRVIRGIKNTTLQSSVVAKNYVYDGLYLVEEYWEETGSHGKLVFKFKLRRIPGQPELPWKEVAKSKKSEFRDGLCNVDITEGKETLPICAVNNLDDEKPPPFIYTAKMIYPDWCRPIPPKSCGCTNGCSKSKNCACIVKNGGKIPYYDGAIVEIKPLVYECGPHCKCPPSCNMRVSQHGIKIKLEIFKTESRGWGVRSLESIPIGSFICEYAGELLEDKQAESLTGKDEYLFDLGDEDDPFTINAAQKGNIGRFINHSCSPNLYAQDVLYDHEEIRIPHIMFFALDNIPPLQELSYDYNYKIDQVYDSNGNIKKKFCYCGSAECSGRLY
binds: [1] | [2] | [3] | [4]

B3: SUPPRESSOR OF …ON 3-9 HOMOLOG 6 (SUVH6), full length, BiFC fusion (enzyme, UniProt Q8VZ17 1-790)
chain: MEMGVMENLMVHTEISKVKSQSNGEVEKRGVSVLENGGVCKLDRMSGLKFKRRKVFAVRDFPPGCGSRAMEVKIACENGNVVEDVKVVESLVKEEESLGQRDASENVSDIRMAEPVEVQPLRICLPGGDVVRDLSVTAGDECSNSEQIVAGSGVSSSSGTENIVRDIVVYADESSLGMDNLDQTQPLEIEMSDVAVAKPRLVAGRKKAKKGIACHSSLKVVSREFGEGSRKKKSKKNLYWRDRESLDSPEQLRILGVGTSSGSSSGDSSRNKVKETLRLFHGVCRKILQEDEAKPEDQRRKGKGLRIDFEASTILKRNGKFLNSGVHILGEVPGVEVGDEFQYRMELNILGIHKPSQAGIDYMKYGKAKVATSIVASGGYDDHLDNSDVLTYTGQGGNVMQVKKKGEELKEPEDQKLITGNLALATSIEKQTPVRVIRGKHKSTHDKSKGGNYVYDGLYLVEKYWQQVGSHGMNVFKFQLRRIPGQPELSWVEVKKSKSKYREGLCKLDISEGKEQSPISAVNEIDDEKPPLFTYTVKLIYPDWCRPVPPKSCCCTTRCTEAEARVCACVEKNGGEIPYNFDGAIVGAKPTIYECGPLCKCPSSCYLRVTQHGIKLPLEIFKTKSRGWGVRCLKSIPIGSFICEYVGELLEDSEAERRIGNDEYLFDIGNRYDNSLAQGMSELMLGTQAGRSMAEGDESSGFTIDAASKGNVGRFINHSCSPNLYAQNVLYDHEDSRIPHVMFFAQDNIPPLQELCYDYNYALDQVRDSKGNIKQKPCFCGAAVCRRRLY
binds: [1] | [2] | [3] | [4]

B4: KYP fused with the 3xFLAG epitope tag driven by the KYP native promoter (KYPpro::KYP:FLAG) (enzyme, UniProt Q8GZB6 1-624)
chain: MAGKRKRANAPDQTERRSSVRVQKVRQKALDEKARLVQERVKLLSDRKSEICVDDTELHEKEEENVDGSPKRRSPPKLTAMQKGKQKLSVSLNGKDVNLEPHLKVTKCLRLFNKQYLLCVQAKLSRPDLKGVTEMIKAKAILYPRKIIGDLPGIDVGHRFFSRAEMCAVGFHNHWLNGIDYMSMEYEKEYSNYKLPLAVSIVMSGQYEDDLDNADTVTYTGQGGHNLTGNKRQIKDQLLERGNLALKHCCEYNVPVRVTRGHNCKSSYTKRVYTYDGLYKVEKFWAQKGVSGFTVYKYRLKRLEGQPELTTDQVNFVAGRIPTSTSEIEGLVCEDISGGLEFKGIPATNRVDDSPVSPTSGFTYIKSLIIEPNVIIPKSSTGCNCRGSCTDSKKCACAKLNGGNFPYVDLNDGRLIESRDVVFECGPHCGCGPKCVNRTSQKRLRFNLEVFRSAKKGWAVRSWEYIPAGSPVCEYIGVVRRTADVDTISDNEYIFEIDCQQTMQGLGGRQRRLRDVAVPMNNGVSQSSEDENAPEFCIDAGSTGNFARFINHSCEPNLFVQCVLSSHQDIRLARVVLFAADNISPMQELTYDYGYALDSVHGPDGKVKQLACYCGALNCRKRLY
binds: [5]
